Laboratory results taken from patent publication US8206898B2, “RNA exit channel: target and method for inhibition of bacterial RNA polymerase” (priority 2003, dated 2012).

System: RNAP holoenzyme (β′/β/α^I/α^II/ω/σ^70)
Assay: FRET probe-probe distances in RNAP holoenzyme with and without Lpm
Parameters: species or system Escherichia coli
Settings: between α^II residue 235 and σ residues 527 and 537

lipiarmycin [Lpm]
decrease in distance on binding of Lpm: > 10 Å
